Results are given in words; binding and its absence hold for the method and conditions named. In cells and extracts the contact can be indirect. Binding can be weak; no strength is given.
Biological target: albumin (human (endogenous in plasma)) (UniProt P02768)
Test: co-sedimentation; only the binder purified

Sequences of proteins named here, by UniProt entry; tags and fusion partners are left off. Residues count along the entry.
UniProt P02768, residues 25-609: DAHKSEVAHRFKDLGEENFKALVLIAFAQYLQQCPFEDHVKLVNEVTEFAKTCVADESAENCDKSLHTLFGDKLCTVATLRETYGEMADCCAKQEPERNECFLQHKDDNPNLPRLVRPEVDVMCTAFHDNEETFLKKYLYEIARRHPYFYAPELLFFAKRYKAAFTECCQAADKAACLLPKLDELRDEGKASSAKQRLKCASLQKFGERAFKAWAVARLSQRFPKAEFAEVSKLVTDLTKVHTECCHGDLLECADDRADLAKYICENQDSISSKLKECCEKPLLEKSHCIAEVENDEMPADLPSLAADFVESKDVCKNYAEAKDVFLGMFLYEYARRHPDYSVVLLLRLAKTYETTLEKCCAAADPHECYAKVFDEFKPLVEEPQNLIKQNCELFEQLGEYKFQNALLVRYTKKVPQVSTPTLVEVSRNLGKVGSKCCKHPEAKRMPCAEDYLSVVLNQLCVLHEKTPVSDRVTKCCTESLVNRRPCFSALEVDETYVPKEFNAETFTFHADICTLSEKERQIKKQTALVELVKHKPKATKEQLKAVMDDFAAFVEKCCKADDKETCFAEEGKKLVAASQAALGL

Substance: M1 protein of Streptococcus pyogenes (recombinant) (from UniProt Q99XV0)
- binding: binds

From paper PMC2522270
